The M2OR odorant receptor database
Positions count from the first letter of the chain named. The entries are a selection whose mix differs from that of the whole data set. The calls were merged from several studies; some rest on single wells. This is one part of the list.

Chains of the proteins cited; added tags and fusions are not shown. A change or cut given only in a name is not applied to a line headed by its entry. A line that says so, or that is headed by a name, gives the form on record, which may keep a tag or linker.
UniProt Q96R45: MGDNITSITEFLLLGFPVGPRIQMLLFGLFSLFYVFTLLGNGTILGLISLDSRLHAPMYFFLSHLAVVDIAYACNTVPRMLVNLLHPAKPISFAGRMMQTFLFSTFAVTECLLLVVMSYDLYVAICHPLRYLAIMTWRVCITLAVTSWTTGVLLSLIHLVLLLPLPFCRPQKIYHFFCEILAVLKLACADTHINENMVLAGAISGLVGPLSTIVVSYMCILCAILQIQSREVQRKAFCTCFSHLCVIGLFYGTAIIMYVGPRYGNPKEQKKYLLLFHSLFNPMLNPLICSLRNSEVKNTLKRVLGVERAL
OR2A2, as listed by the source: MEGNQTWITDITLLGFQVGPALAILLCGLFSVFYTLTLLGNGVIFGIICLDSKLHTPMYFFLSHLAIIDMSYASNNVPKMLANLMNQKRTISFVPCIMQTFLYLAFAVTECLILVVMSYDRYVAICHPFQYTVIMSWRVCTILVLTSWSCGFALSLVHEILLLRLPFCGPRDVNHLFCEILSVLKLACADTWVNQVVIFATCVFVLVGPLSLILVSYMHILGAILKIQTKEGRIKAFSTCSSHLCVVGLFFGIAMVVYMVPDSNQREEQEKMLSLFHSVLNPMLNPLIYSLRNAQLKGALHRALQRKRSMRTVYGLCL
OR2A7, as listed by the source: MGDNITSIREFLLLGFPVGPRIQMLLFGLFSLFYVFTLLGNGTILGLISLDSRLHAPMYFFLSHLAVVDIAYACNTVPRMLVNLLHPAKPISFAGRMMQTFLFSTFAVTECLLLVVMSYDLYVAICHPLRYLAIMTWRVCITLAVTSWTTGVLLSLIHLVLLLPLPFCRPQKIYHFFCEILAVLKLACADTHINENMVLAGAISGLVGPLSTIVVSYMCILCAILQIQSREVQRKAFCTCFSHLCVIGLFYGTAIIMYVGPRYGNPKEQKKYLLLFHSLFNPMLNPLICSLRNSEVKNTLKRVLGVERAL

Tests used:
Details in all cases: stereoisomer not certain
[1] = target: T1, OR2A14 (Homo sapiens) (UniProt Q96R47)
T1 sequence (whole entry): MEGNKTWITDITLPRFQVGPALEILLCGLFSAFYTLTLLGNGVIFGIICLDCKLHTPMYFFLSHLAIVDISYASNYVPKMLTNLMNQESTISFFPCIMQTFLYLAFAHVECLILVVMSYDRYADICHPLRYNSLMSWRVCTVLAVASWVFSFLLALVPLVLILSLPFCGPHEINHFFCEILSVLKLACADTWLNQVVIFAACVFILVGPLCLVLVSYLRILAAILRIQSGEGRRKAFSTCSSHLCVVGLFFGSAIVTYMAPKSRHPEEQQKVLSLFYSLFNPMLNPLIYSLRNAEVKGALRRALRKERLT
In short: (§1)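 Each entry records the cell line, G-protein, co-transfected protein and tags used. Methods varied with the source, often transient luciferase assays in mammalian cell lines. A receptor–molecule pair is called responsive (active) if the original authors judged its signal statistically different from baseline and non-responsive (inactive) otherwise.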

[2] = tested on: T2, OR2A1
T2 sequence (whole entry): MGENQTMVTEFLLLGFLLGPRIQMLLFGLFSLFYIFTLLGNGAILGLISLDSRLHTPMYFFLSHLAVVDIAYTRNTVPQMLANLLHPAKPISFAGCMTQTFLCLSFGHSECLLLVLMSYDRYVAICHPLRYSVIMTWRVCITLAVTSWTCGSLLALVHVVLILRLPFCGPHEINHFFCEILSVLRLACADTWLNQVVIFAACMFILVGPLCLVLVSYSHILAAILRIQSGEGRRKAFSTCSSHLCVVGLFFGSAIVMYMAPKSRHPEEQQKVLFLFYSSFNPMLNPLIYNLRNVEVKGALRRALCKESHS
In short: as §1

[3] = tested on: T3, OR2A1; remark: listed apart in the source
T3 sequence (whole entry): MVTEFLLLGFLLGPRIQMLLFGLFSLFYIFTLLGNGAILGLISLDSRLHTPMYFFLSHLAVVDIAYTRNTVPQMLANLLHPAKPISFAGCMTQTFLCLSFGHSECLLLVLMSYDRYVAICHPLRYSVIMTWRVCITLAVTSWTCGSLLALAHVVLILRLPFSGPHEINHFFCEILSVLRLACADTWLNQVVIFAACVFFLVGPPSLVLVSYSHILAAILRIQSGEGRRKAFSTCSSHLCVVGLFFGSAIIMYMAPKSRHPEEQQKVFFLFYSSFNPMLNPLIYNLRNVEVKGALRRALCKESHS
In short: as §1

[4] = target: T4, OR2A2 (Homo sapiens) (UniProt Q6IF42)
T4 sequence (whole entry): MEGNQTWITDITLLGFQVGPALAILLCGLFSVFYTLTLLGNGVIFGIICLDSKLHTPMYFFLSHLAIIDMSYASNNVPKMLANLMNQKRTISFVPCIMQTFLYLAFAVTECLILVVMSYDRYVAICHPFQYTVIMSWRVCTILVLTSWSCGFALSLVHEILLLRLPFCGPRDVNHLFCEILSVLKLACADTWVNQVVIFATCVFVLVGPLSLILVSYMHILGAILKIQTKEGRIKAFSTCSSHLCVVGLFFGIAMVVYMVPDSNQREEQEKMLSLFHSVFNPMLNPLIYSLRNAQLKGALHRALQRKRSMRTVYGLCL
In short: as §1

[5] = target: T5, OR2A25 (Homo sapiens) (UniProt A4D2G3)
T5 sequence (whole entry): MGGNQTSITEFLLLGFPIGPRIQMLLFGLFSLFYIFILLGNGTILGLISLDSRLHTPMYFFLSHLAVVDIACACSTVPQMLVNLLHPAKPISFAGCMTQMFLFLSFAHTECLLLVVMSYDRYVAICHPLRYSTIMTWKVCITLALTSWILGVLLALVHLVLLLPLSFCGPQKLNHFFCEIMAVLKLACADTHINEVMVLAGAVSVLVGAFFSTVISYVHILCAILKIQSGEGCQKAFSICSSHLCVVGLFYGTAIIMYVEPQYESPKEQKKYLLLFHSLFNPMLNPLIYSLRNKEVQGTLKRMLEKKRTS
In short: as §1

[6] = tested on: T6, OR2A2
T6 sequence (whole entry): T4 sequence (whole entry) with F280L
In short: as §1

[7] = target: T7, OR2A4 (Homo sapiens) (UniProt O95047)
T7 sequence (whole entry): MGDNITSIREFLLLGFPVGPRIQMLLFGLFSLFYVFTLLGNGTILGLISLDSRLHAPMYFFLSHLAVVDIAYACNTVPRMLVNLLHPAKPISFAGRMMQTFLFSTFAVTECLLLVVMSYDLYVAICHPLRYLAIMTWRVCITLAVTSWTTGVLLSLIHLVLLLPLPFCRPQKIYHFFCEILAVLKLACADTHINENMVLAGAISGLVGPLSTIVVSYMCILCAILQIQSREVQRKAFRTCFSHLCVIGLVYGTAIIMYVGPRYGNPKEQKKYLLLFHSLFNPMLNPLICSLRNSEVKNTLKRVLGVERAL
In short: as §1

[8] = target: T8, OR2A5 (Homo sapiens) (UniProt Q96R48)
T8 sequence (whole entry): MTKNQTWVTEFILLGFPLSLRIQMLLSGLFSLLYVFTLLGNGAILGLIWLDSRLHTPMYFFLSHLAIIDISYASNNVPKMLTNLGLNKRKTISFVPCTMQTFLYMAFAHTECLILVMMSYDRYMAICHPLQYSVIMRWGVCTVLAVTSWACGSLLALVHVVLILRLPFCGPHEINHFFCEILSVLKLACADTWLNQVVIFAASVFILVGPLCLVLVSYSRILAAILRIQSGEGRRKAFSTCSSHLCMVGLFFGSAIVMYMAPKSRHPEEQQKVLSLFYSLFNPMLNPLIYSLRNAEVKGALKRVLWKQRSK
In short: as §1

[9] = target: T9, OR2A7 (Homo sapiens) (UniProt Q96R45)
T9 sequence (whole entry): T7 sequence (whole entry) with R9T, R238C, V250F
In short: as §1

[10] = tested on: T10, OR2A7
T10 sequence (whole entry): T7 sequence (whole entry) with R238C, V250F
In short: as §1

Measured: odorant receptor agonist call

O=CCc1ccccc1
active: [3]
inactive: all other assays above

C=CCc1ccc(OC(C)=O)c(OC)c1
active: [3]
inactive: all other assays above

CCCC(=O)O
inactive: all assays above

CC(=O)OC(C)(C)C1CC=C(C)CC1 (stereo not given)
inactive: all assays above

CC12CCC(C1)C(C)(C)C2=O (stereo not given)
inactive: all assays above

CC1COCc2cc3c(cc21)C(C)(C)C(C)C3(C)C (stereo not given)
inactive: [1] | [2]
active: all other assays above

Looked up by compound from above, 2 records:
C=CCc1ccc(OC(C)=O)c(OC)c1
active: [3]
inactive: all other assays above

CC12CCC(C1)C(C)(C)C2=O (stereo not given)
inactive: all assays above

(further entries)

c1cnccn1
inactive: all assays above

CC(C)C(=O)O
inactive: all assays above

COc1cc(C)ccc1O
inactive: all assays above

CC(=O)OCC=C(C)CCC=C(C)C
active: [1] | [3] | [5]
inactive: all other assays above

CC(C)CC(=O)O
inactive: all assays above

CC(=O)OC1CC2CCC1(C)C2(C)C (stereo not given)
active: [1]
inactive: all other assays above

C=CC(C)(O)CCC=C(C)C (stereo not given)
inactive: all assays above

O=C1CCCCCCCCCCCC(=O)OCCO1
active: [3] | [7]
inactive: all other assays above

CC1=CCC(C(C)(C)O)CC1 (stereo not given)
inactive: all assays above

CC(C)(C)c1ccc(CCC=O)cc1
inactive: all assays above

COc1ccccc1O
inactive: all assays above

CCCCCCCCCC=O
inactive: all assays above

CC1CCC(C(C)C)C(O)C1 (stereo not given)
active: [4] | [6] | [9]
inactive: all other assays above

CCC=CCCO
inactive: all assays above

CCCCCCCC=O
inactive: all assays above

CCCCCCOC(=O)CCC
inactive: all assays above

O=C1CCCCCCCCCCCCCCO1
inactive: all assays above

CC=Cc1ccc(O)c(OC)c1
active: [3] | [8]
inactive: all other assays above
